Series [1] concerns the target SRP21 (UniProt P32342). Nature of the series: EMSA (agarose). As to conditions: 50 nM RNA, large aggregates only partially enter the gel; EMSA: 20 mM Tris-base pH 8.8, 70 mM KOAc, 2 mM MgCl2, 10 ug/uL BSA, 1 mM DTT, with or without 5 mM AMP-PNP or ATP, 0.15 uM RNA, 15 min at 30 C; 1% agarose, 1x TBE, 4 C; recombinant protein; residues 1-167; protein details: C-terminal 6xHis (pET22b); probe letters rebuilt from the primers and the genome; part of a longer molecule. A general note: Mobility shift assays separate free from complexed probe on a gel.

The chains behind the UniProt entries cited, without tags or fusion partners. Where a name states a change or a piece, a line headed by the entry shows the natural chain unless it says otherwise.
UniProt P32342: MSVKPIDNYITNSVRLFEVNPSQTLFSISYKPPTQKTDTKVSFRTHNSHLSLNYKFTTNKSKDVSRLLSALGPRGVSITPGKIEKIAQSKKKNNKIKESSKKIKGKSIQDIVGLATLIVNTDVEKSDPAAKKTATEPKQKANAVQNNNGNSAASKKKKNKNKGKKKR
UniProt P06634: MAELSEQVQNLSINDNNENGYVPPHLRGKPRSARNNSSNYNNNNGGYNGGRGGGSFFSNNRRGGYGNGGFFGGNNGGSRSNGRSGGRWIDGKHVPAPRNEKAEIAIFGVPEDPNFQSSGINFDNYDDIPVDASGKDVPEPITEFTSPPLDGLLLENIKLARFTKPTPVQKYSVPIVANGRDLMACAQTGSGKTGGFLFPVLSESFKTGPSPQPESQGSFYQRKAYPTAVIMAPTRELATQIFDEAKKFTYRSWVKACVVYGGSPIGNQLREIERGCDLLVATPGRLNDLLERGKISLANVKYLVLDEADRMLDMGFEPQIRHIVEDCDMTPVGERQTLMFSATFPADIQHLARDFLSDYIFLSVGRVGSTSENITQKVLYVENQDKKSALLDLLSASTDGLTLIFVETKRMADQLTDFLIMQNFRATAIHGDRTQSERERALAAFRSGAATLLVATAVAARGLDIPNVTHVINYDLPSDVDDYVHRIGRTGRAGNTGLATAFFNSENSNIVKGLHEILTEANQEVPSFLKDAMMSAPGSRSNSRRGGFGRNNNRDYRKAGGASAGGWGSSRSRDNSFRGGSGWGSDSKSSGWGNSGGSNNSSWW

In series [2] the target is Ded1 (UniProt P06634). Nature of the series: EMSA (agarose). To be noted: 5- to 10-fold excess Ded1 shifts the majority, 0.15 uM RNA, EMSA: 20 mM Tris-base pH 8.8, 70 mM KOAc, 2 mM MgCl2, 10 ug/uL BSA, 1 mM DTT, with or without 5 mM AMP-PNP or ATP, 15 min at 30 C, 1% agarose, 1x TBE, 4 C, recombinant protein, residues 1-604, protein details: C-terminal 6xHis (pET22b), probe letters rebuilt from the primers and the genome, part of a longer molecule.

The exact form of at least one protein or probe is not confirmed.

One sequence from article PMC11206880, “The RNA Helicase Ded1 from Yeast Is Associated with the Signal Recognition Particle and Is Regulated by SRP21” (Molecules, 2024) can be followed below.

With “UGUAAUGGCUUUCUGGUGGGAUGGGAUACGUUGAGAAUUCUGGCCGAGGAACAAAUCCUUCCUCGCGGCUAGACACGGAUUGCACGCCCUUUGGGCAAGGGAUAGUUCUCUAUUCCGCACCGUGCCCUGUUGUGGCAACCGUCUUUCCUCCGUCGUAAAUUUGUCCUGGGCAGAGCUGUCUGCCCGGAGGCGGGAGAGUCCGUUCUGAAGUGUCCCGGCUAUAAUAAAUCGAUCUUUGCGGGCAGCCCGUUGGCAGGAGGCGUGAGGAAUCCGUCUCUCUGUCUGGUGCGGCAAGGUAGUUCUGGGUCCUUAGGGGCUCCACCUUCACCGCUGUUAGGGGAGUUUUAUCCAGCGUCAGCAAAGGUGACCCGUGAUGGAGGCGGCCGGGAUAGCACAUAUCAGUCGGAUAAUUGUGCAAGUUGAUCGCUUCGGCGGUUUAAUUUGGCGGUGCCAUCAGGAUUUACUCGCACAUUGUGGCCGUUCCCUCGGGGAUGGAGUGUGUCCUGAACCAUAUUUUU [SCR1 RNA (T7 transcript, 522 nt)]”, the binding result in series [1] and in series [2] was “binds” in each case.
